Two molecules from PubChem BioAssay AID1918952 (Molecular Pharmacology Branch, DTP, NCI, 2023) can be followed below.

Values joined by “and” are separate entries in the source; they are usually repeats but may differ in a detail not shown here. Identical values can stand only once. This continues a long series; more values of the same kind are listed elsewhere.

The test system of the test is LG0703-F948-PDC complex spheroid viability. The test is described as follows: Anticancer human tumor LG0703-F948-PDC patient-derived lung adenocarcinoma cell line growth inhibition. Particulars: hits give low values. The text has this:
Multicellular complex tumor spheroid response to LSD1 Inhibitor Iadademstat in combination with a variety of drugs and investigational agents in selected tumor cell lines
The current study was undertaken to assess response to LSD1 inhibitors in combination with standard-of-care drugs and investigational agents in solid tumor complex spheroid models as well as in the K-562 leukemia. Complex spheroids include a stromal component modeled by human endothelial cells (HUVEC) and fibroblasts modeled by human mesenchymal stem cells (MSCs). The concentration ranges selected for each drug and investigational agent were based upon clinically achievable concentrations if the clinical Cmax of the agent was known.
Compounds. The drugs and investigational agents used in this study are listed on Table 1. All of the agents used, including staurosporine (NSC755774) and gemcitabine (NSC613327), were obtained from the Developmental Therapeutics Program, NCI. FDA-approved anticancer drugs are available from the NCI at http://dtp.nci.nih.gov/branches/dscb/oncology_drugset_explanation.html. Drugs and investigational agents were >95% pure by proton nuclear magnetic resonance (NMR) and liquid chromatography/mass spectrometry (LC/MS). […] If the clinical Cmax for an agent had not been determined, the highest concentration tested was 10 microM. […]
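Note: spheroids exposed to agents for seven days before readout; 100% = DMSO vehicle control wells as normalization base.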

Broadly, the viability, T/C is the ratio of treated to control. Turning to `NC1CCC(NC2CC2c2ccccc2)CC1` (configuration not stated), the viability, T/C (compound 10 µM) is 112% and 105%.

Turning to `NC1CC1c1ccc(-c2cccc(O)c2)cc1` (configuration not stated), the viability, T/C (compound 0.1 µM) was 105% [middle of 23 runs].
